# Some of the results follow.
# Columns and labels:
# Experiment in all cases: glycan array binding signal (z-score within array); higher = stronger binding
# Conditions in all cases: glycan notation: IUPAC condensed, linker removed
# [1] = biological target: Gal(b1-4)GlcNAc(b1-2)Man(a1-3)[Gal(b1-4)GlcNAc(b1-2)Man(a1-6)]Man(b1-4)GlcNAc(b1-4)GlcNAc
# Outline: (§1)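 Negative Z-scores can be read as non-binding. The Z-score is calculated within each array and then averaged across arrays of one protein sequence at different concentrations or buffers and across linkers. Arrays, 3228 in all, were curated from the Consortium for Functional Glycomics database and kept only where the protein sequence was available.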
# [2] = biological target: Gal(b1-4)GlcNAc(b1-2)Man(a1-3)[Gal(b1-4)GlcNAc(b1-2)Man(a1-6)]Man(b1-4)GlcNAc(b1-4)[Fuc(a1-6)]GlcNAc
# Outline: as §1
# [3] = biological target: Gal(b1-4)GlcNAc(b1-2)Man(a1-3)[Gal(b1-4)GlcNAc(b1-2)][GlcNAc(b1-4)]Man(b1-4)GlcNAc(b1-4)GlcNAc
# Outline: as §1
# [4] = biological target: Gal(b1-4)GlcNAc(b1-2)Man(a1-3)[GlcNAc(b1-2)Man(a1-6)]Man(b1-4)GlcNAc(b1-4)GlcNAc
# Outline: as §1
# [5] = biological target: Gal(b1-4)GlcNAc(b1-2)Man(a1-3)[Man(a1-6)]Man(b1-4)GlcNAc(b1-4)GlcNAc
# Outline: as §1
# [6] = biological target: Gal(b1-4)GlcNAc(b1-2)Man(a1-6)Man(b1-4)GlcNAc(b1-4)GlcNAc
# Outline: as §1
# [7] = biological target: Gal(b1-4)GlcNAc(b1-2)Man(a1-6)[GlcNAc(b1-2)Man(a1-3)]Man(b1-4)GlcNAc(b1-4)GlcNAc
# Outline: as §1
# [8] = biological target: Gal(b1-4)GlcNAc(b1-2)Man(a1-6)[Man(a1-3)]Man(b1-4)GlcNAc(b1-4)GlcNAc
# Outline: as §1
# [9] = biological target: Gal(b1-4)GlcNAc(b1-2)[Gal(b1-4)GlcNAc(b1-4)]Man(a1-3)[Gal(b1-4)GlcNAc(b1-2)Man(a1-6)]Man(b1-4)GlcNAc(b1-4)GlcNAc
# Outline: as §1
# [10] = biological target: Gal(b1-4)GlcNAc(b1-2)[Gal(b1-4)GlcNAc(b1-4)]Man(a1-3)[Gal(b1-4)GlcNAc(b1-2)[Gal(b1-4)GlcNAc(b1-6)]Man(a1-6)]Man(b1-4)GlcNAc(b1-4)GlcNAc
# Outline: as §1
# [11] = biological target: Gal(b1-4)GlcNAc(b1-2)[Gal(b1-4)GlcNAc(b1-4)]Man(a1-3)[GlcNAc(b1-4)][Gal(b1-4)GlcNAc(b1-2)Man(a1-6)]Man(b1-4)GlcNAc(b1-4)GlcNAc
# Outline: as §1
# [12] = biological target: Gal(b1-4)GlcNAc(b1-2)[Gal(b1-4)GlcNAc(b1-4)]Man(a1-3)[GlcNAc(b1-4)][Gal(b1-4)GlcNAc(b1-2)[Gal(b1-4)GlcNAc(b1-6)]Man(a1-6)]Man(b1-4)GlcNAc(b1-4)GlcNAc
# Outline: as §1
# [13] = biological target: Gal(b1-4)GlcNAc(b1-2)[Gal(b1-4)GlcNAc(b1-6)]Man(a1-6)[Gal(b1-4)GlcNAc(b1-2)Man(a1-3)]Man(b1-4)GlcNAc(b1-4)GlcNAc
# Outline: as §1
# [14] = biological target: Gal(b1-4)GlcNAc(b1-2)[Gal(b1-4)GlcNAc(b1-6)]Man(a1-6)[GlcNAc(b1-4)][Gal(b1-4)GlcNAc(b1-2)Man(a1-3)]Man(b1-4)GlcNAc(b1-4)GlcNAc
# Outline: as §1
# [15] = biological target: Gal(b1-4)GlcNAc(b1-3)Gal(b1-3)GlcNAc
# Outline: as §1
# [16] = biological target: Gal(b1-4)GlcNAc(b1-3)Gal(b1-4)Glc
# Outline: as §1
# [17] = biological target: Gal(b1-4)GlcNAc(b1-3)Gal(b1-4)GlcNAc
# Outline: as §1
# [18] = biological target: Gal(b1-4)GlcNAc(b1-3)Gal(b1-4)GlcNAc(b1-3)Gal(b1-4)GlcNAc
# Outline: as §1
# [19] = biological target: Gal(b1-4)GlcNAc(b1-3)Gal(b1-4)[Fuc(a1-3)GlcNAc(b1-6)]Gal(b1-4)Glc
# Outline: as §1
# [20] = biological target: Gal(b1-4)GlcNAc(b1-3)Gal(b1-4)[Fuc(a1-3)]GlcNAc(b1-3)Gal(b1-4)[Fuc(a1-3)]GlcNAc
# Outline: as §1
# [21] = biological target: Gal(b1-4)GlcNAc(b1-3)GalNAc
# Outline: as §1
# [22] = biological target: Gal(b1-4)GlcNAc(b1-3)[Gal(b1-4)GlcNAc(b1-6)]Gal(b1-4)GlcNAc
# Outline: as §1
# [23] = biological target: Gal(b1-4)GlcNAc(b1-3)[Gal(b1-4)GlcNAc(b1-6)]GalNAc
# Outline: as §1
# [24] = biological target: Gal(b1-4)GlcNAc(b1-3)[GlcNAc(b1-6)]Gal(b1-4)GlcNAc
# Outline: as §1
# [25] = biological target: Gal(b1-4)GlcNAc(b1-6)Gal(b1-4)GlcNAc
# Outline: as §1
# [26] = biological target: Gal(b1-4)GlcNAc(b1-6)GalNAc
# Outline: as §1
# [27] = biological target: Gal(b1-4)GlcNAc(b1-6)[Gal(b1-3)]GalNAc
# Outline: as §1
# Gal(b1-6)Gal = biological target: Gal(b1-6)Gal
# Outline: as §1
# Gal3S(b1-3)GalNAc = biological target: Gal3S(b1-3)GalNAc
# Outline: as §1
# Gal3S(b1-3)GlcNAc = biological target: Gal3S(b1-3)GlcNAc
# Outline: as §1
binder,measurement,setting,value
"NanH (Corynebacterium diphtheriae), C6JSW6 (protein) MYSSNRTYSRAILGLSAVLTLSFTSLVAPVNAEEPETVVPATAELEGEVAATLPSAETGLLDAAPPKPVARGAAGDLQLPAVNEKEVFEEGRVIRAPEPDQSRCYRIPALVTAKNGDLLLAFDNRYGGGDGAKTWCRDAPYENMKRINRQNMQTDIQLYRSVDNGQSFEDFGYIAQGTADVRELSYTDPALVTDRTTGKIFAFFVRAYDYRVGQSSAGFNEGDVEAEIQKRDVQDTVVVESLDGGQTWGNMRLLSALTAKVSSISTGDTIFDGRGRFVTSGAGIQLQYGEHAGRLIVPISVDIDPKDSAKFINLAIYSDDHGQTWQAGIGTAGGAGFSGDVSKIVELSDGRLMMSSKDNDKPRWVSYSEDQGENWSTPKRKIIAPPQHPEKHNTGINVGLIRAYPNAPENSAAARVLLYSAPIDQRYSHKHTEDGRNNGWVMGSCDDGKTWSFGRQIEKNRFQYSSMTVMSDGNIGMVYESGDFSTGMNLKFAKFNMAWLGADCHSNEALGLTGDIDKEIVEAQEKAAEATKEAQEAAEKVQKLTEELAAARKENDELKNQVKGFKEAVGDLANEAEDLADKVFKLETAVTEAKEKATVAEKAASDAVTQLQKAESIAEEQKAKAESAAAEAQALREKLERLEGSILTVKENPEAEEIADLSSTAKDAADAARRAATDANGALSGQKQDEEKPAMGLMGILKVLAGIIPLVAIIATIFQTFRLPFNIPGMR",glycan array binding signal (z-score),[1],-0.444
same,glycan array binding signal (z-score),[2],2.29
same,glycan array binding signal (z-score),[3],0.075
same,glycan array binding signal (z-score),[4],-1.54
same,glycan array binding signal (z-score),[5],-0.033
same,glycan array binding signal (z-score),[6],-1.02
same,glycan array binding signal (z-score),[7],0.021
same,glycan array binding signal (z-score),[8],0.04
same,glycan array binding signal (z-score),[9],1.1
same,glycan array binding signal (z-score),[10],1.4
same,glycan array binding signal (z-score),[11],0.424
same,glycan array binding signal (z-score),[12],0.456
same,glycan array binding signal (z-score),[13],0.523
same,glycan array binding signal (z-score),[14],-0.13
same,glycan array binding signal (z-score),[15],1.02
same,glycan array binding signal (z-score),[16],-0.867
same,glycan array binding signal (z-score),[17],-0.499
same,glycan array binding signal (z-score),[18],1.39
same,glycan array binding signal (z-score),[19],1.09
same,glycan array binding signal (z-score),[20],-0.261
same,glycan array binding signal (z-score),[21],-0.141
same,glycan array binding signal (z-score),[22],-0.376
same,glycan array binding signal (z-score),[23],-0.696
same,glycan array binding signal (z-score),[24],-1.14
same,glycan array binding signal (z-score),[25],1.11
same,glycan array binding signal (z-score),[26],-0.974
same,glycan array binding signal (z-score),[27],-1.06
same,glycan array binding signal (z-score),Gal(b1-6)Gal,-0.464
same,glycan array binding signal (z-score),Gal3S(b1-3)GalNAc,0.752
same,glycan array binding signal (z-score),Gal3S(b1-3)GlcNAc,0.008

# Shown with bars between the fields: part of the list above.
binder | measurement | setting | value
NanH (Corynebacterium diphtheriae), C6JSW6 (protein) MYSSNRTYSRAILGLSAVLTLSFTSLVAPVNAEEPETVVPATAELEGEVAATLPSAETGLLDAAPPKPVARGAAGDLQLPAVNEKEVFEEGRVIRAPEPDQSRCYRIPALVTAKNGDLLLAFDNRYGGGDGAKTWCRDAPYENMKRINRQNMQTDIQLYRSVDNGQSFEDFGYIAQGTADVRELSYTDPALVTDRTTGKIFAFFVRAYDYRVGQSSAGFNEGDVEAEIQKRDVQDTVVVESLDGGQTWGNMRLLSALTAKVSSISTGDTIFDGRGRFVTSGAGIQLQYGEHAGRLIVPISVDIDPKDSAKFINLAIYSDDHGQTWQAGIGTAGGAGFSGDVSKIVELSDGRLMMSSKDNDKPRWVSYSEDQGENWSTPKRKIIAPPQHPEKHNTGINVGLIRAYPNAPENSAAARVLLYSAPIDQRYSHKHTEDGRNNGWVMGSCDDGKTWSFGRQIEKNRFQYSSMTVMSDGNIGMVYESGDFSTGMNLKFAKFNMAWLGADCHSNEALGLTGDIDKEIVEAQEKAAEATKEAQEAAEKVQKLTEELAAARKENDELKNQVKGFKEAVGDLANEAEDLADKVFKLETAVTEAKEKATVAEKAASDAVTQLQKAESIAEEQKAKAESAAAEAQALREKLERLEGSILTVKENPEAEEIADLSSTAKDAADAARRAATDANGALSGQKQDEEKPAMGLMGILKVLAGIIPLVAIIATIFQTFRLPFNIPGMR | glycan array binding signal (z-score) | [8] | 0.04
same | glycan array binding signal (z-score) | [26] | -0.974

# From the supplement of paper PMC8728848
